In patent publication US20170088584A1, “USE OF […] DRUGS FOR OS[…] AND BONE REGENERATION” (UNIVERSIDAD NACIONAL AUTONOMA DE MEXICO, priority 2015, published 2017):

Test: hydroxyapatite crystal induction in a cell-free system in metasilicate gels (SEM, EDS)
Conditions: 20 μg/mL in sodium metasilicate gel, 7 days at 37° C.

MGTSSTDSQQAQHRRCSTSN
Ca/P ratio of the crystals formed (EDS): 1.7
hydroxyapatite crystal formation (microscopy): hydroxyapatite crystals induced
